From patent US10449241B2, “Interferon-β production modulating Listeria strains and methods for using same” (The Regents of the University of California, priority 2006, dated 2019)
At least one compound was matched to its structure with a doubt left.

Test system: L. monocytogenes MDR transporters (mdrL, mdrT, mdrM)
Assay: L. monocytogenes MDR transporter expression in BHI broth by qRT-PCR
Settings: 50 μM, 1 hour

c1ccc([P+](c2ccccc2)(c2ccccc2)c2ccccc2)cc1 [tetraphenylphosphonium]
transcription of the 3 MDRs in w.t. L. monocytogenes grown in the presence of the toxic drug: highly induced
